Measured values taken from the supplement of paper PMC6078165.
Values are relative to the signal before dosing, not to a vehicle control; the signal also falls without drug.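 Fibroblast labels name human fibroblasts: mostly primary ones from tissues such as uterus (C12385, HUF), lung (H6013), bone (Hs27A), adrenal (HADF) and skin (WS1), plus mammary HMF and breast cancer-associated Hs343T. The cancer cells are basal-like or mesenchymal-like triple-negative breast cancer lines. The paper calls a changed response a hit when it shifts by more than 3x the replicate standard deviation. The tissue of the other fibroblasts is not given here.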

Tested on: BT20
Test: relative JC-1 red fluorescence (viability) vs pre-drug, coculture with fibroblast (fraction); higher = more viable cancer cells
Conditions: 100 µM
Description: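 JC-1 labelled TNBC cells cocultured 1:1 (1,500 cells each) with CellTrace Violet stained primary or stromal fibroblasts in 384-well plates in FluoroBrite medium, treated with one of 42 anticancer drugs at 0.1, 1, 10 or 100 uM. JC-1 red fluorescence (mitochondrial integrity in cancer cells only) was read by plate reader every 8 h for 72 h. Values are normalised to each well's pre-drug value. The stock of one drug was tenfold lower, so its dose labels may be too high.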

O=C(CCCCCCC(=O)Nc1ccccc1)NO [Vorinostat]
relative JC-1 red fluorescence
Conditions	8 h	16 h	24 h	32 h	40 h	48 h	56 h	64 h	72 h
coculture fibroblast: C12385	0.9059	0.82	0.7636	0.666	0.58	0.545	0.499	0.472	0.46
coculture fibroblast: H6013	0.973	0.895	0.88	0.79	0.701	0.686	0.698	0.685	0.675
coculture fibroblast: H6019	0.8487	0.774	0.74	0.687	0.615	0.595	0.584	0.59	0.598
coculture fibroblast: H6076	0.846	0.87	0.776	0.717	0.6557	0.6138	0.594	0.589	0.576
coculture fibroblast: H6231	0.764	0.91	0.783	0.691	0.596	0.521	0.482	0.482	0.446
coculture fibroblast: HADF	0.827	0.89	0.794	0.868	0.862	0.821	0.776	0.768	0.722
coculture fibroblast: HCFa	0.937	0.854	0.838	0.737	0.689	0.655	0.654	0.654	0.64
coculture fibroblast: HCPF	0.822	0.927	0.792	0.701	0.608	0.548	0.487	0.484	0.452
coculture fibroblast: HHSteC	0.957	0.868	0.816	0.709	0.634	0.587	0.561	0.543	0.501
coculture fibroblast: HMF	0.938	0.855	0.779	0.692	0.622	0.558	0.516	0.496	0.468
coculture fibroblast: HPFa	0.934	0.845	0.817	0.707	0.652	0.609	0.595	0.595	0.569
coculture fibroblast: HUF	0.913	0.835	0.783	0.645	0.54	0.496	0.471	0.45	0.436
coculture fibroblast: Hs5	0.756	0.8838	0.799	0.728	0.667	0.629	0.604	0.596	0.58
coculture fibroblast: Hs27A	0.913	0.8325	0.931	0.906	0.845	0.833	0.864	0.848	0.81
coculture fibroblast: Hs343T	0.77	0.876	0.74332	0.648	0.555	0.495	0.447	0.4185	0.384
coculture fibroblast: WS1	0.865	0.7724	0.725	0.616	0.529	0.505	0.482	0.461	0.453
